Results as given in US20050260575, “Method for identifying substances useful for treating inflammation using the response element to the ikbalpha ror receptor” (published 2005).
For part of these data: No signal at the amounts used counts as a negative. Protein sequences can lack the tags named with them.

Columns and labels:
Test in all cases: activity in cells
RORα1 (Homo sapiens) = target: T1, RORα1 (Homo sapiens) (UniProt P35398); conditions: (IκBα-RORE)2-TK-Luc in PAC1A cells, strong induction; protein in cells; protein details: pSG5-hRORα1 expression vector; only the site is given
T1 sequence (looked up, limits assumed): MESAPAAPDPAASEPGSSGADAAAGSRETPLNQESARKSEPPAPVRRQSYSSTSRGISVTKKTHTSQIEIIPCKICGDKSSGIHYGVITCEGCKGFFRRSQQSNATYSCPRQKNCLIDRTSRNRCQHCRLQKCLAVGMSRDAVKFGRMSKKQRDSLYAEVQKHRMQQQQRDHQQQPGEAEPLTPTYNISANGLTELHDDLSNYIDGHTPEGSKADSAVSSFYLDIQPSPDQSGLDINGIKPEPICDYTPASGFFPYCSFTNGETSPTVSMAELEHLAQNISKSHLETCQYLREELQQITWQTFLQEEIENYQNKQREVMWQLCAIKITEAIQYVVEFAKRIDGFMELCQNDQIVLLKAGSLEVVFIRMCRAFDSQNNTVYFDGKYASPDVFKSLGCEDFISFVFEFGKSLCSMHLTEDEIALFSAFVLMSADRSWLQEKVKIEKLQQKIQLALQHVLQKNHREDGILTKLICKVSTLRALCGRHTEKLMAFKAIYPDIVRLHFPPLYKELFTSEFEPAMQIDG

RORα2 (Homo sapiens) = tested on: T2, RORα2 (Homo sapiens); conditions: (IκBα-RORE)2-TK-Luc in PAC1A cells, no induction; protein in cells; protein details: pSG5-hRORα2 expression vector; only the site is given
T2 sequence (looked up, limits assumed): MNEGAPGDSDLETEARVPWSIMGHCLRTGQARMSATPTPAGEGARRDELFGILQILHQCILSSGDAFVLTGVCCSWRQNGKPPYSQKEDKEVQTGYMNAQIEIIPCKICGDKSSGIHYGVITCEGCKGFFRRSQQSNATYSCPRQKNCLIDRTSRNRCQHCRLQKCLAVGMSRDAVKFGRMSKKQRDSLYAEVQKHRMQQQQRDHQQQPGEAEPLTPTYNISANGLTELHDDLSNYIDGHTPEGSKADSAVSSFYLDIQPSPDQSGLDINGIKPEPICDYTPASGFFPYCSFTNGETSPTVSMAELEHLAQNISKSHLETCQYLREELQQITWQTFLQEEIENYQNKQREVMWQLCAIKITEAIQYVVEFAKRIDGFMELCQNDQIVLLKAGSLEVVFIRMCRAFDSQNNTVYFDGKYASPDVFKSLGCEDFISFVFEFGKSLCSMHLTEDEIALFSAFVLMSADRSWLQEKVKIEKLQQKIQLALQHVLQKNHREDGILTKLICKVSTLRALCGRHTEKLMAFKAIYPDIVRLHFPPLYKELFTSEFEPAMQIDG

RORα3 (Homo sapiens) = tested on: T3, RORα3 (Homo sapiens); conditions: (IκBα-RORE)2-TK-Luc in PAC1A cells, no induction; protein in cells; protein details: pSG5-hRORα3 expression vector; only the site is given
T3 sequence (looked up, limits assumed): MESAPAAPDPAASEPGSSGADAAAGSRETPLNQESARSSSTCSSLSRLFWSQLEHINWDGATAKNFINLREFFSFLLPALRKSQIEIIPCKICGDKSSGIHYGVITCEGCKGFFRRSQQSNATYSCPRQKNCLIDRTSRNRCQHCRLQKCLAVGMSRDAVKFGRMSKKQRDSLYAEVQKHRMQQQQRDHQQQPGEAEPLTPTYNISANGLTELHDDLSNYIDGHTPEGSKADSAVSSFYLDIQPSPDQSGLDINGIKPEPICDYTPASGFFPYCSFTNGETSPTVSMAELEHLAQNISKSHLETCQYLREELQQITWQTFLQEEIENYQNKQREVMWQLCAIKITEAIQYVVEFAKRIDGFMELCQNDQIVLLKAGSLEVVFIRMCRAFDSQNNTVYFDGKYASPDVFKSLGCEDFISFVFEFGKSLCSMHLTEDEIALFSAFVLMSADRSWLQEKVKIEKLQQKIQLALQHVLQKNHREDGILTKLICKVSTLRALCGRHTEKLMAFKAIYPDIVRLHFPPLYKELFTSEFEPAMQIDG

GAGCACAATGTAGGTCAGATAG (double strand) [IκBα-RORE]
activity on this sequence (RORα1 (Homo sapiens)): active
activity on this sequence (RORα2 (Homo sapiens)): not active
activity on this sequence (RORα3 (Homo sapiens)): not active
